Measurements published in PubChem BioAssay AID212 (DTP/NCI, 2004).
The list shows only some results of the screen, not a fair sample: it is rich in T/C values a quarter to a half above the control, in often repeated tests (any T/C) and in doses without a T/C. Other doses and runs of a compound stand elsewhere. T/C gives the treated animals as a percentage of the vehicle group. Schedule codes are those of the source, taken here to give the interval after Q, in days (D) or hours (H), and the number of doses after X. Some doses were run more than once; their values stand side by side, smallest first. Some T/C values carry the count of animals alive at the toxicity check (mostly the fifth day); without a count, all were alive then. Some entries give survivors of the animals treated and no T/C: the source files T/C as zero there, which appears to mark a toxic dose or a test without result, not a measured value. Counts of survivors are from the toxicity check (mostly the fifth day) where no day follows; animals may have died later. *1 amine or outer side, *2 acyl side, *3 side chain or, on linkers, in order; H or OH if unused. Where a SMILES comes first, the peptide text is derived from it. Bridges are numbered along the chain shown (N, C = ends). Roman numbers before positions name the chains, in order. [ ]: non-standard residue; d: D form. Actinocin(1to9) = Cc1c2oc3c(C)ccc(C(=O)[*:2])c3nc-2c(C(=O)[*:1])c(N)c1=O; NMeV = CN[CH](C(=O)O)C(C)C; Aze = O=C(O)[CH]1CCN1; Sar = CNCC(=O)O

System: BDF1 mice, colon carcinoma 38 sc, T/C %
Test: NCI In Vivo Anticancer Drug Screen. Data for tumor model Colon Carcinoma 38 (subcutaneous) in B6D2F1 (BDF1) mice
Settings: T/C endpoint: median tumor weight (est.), higher T/C = larger tumour; for T/C: evaluated on day 20
Outline: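 T/C readout: treated group (T) measurement over vehicle control group (C) measurement. Endpoint is survival or tumor size in mice bearing a transplanted tumor.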

[1] = dose: 100.0 mg/kg/injection, schedule: Q07DX002 (ip), vehicle: saline with Tween-80
[2] = dose: 200.0 mg/kg/injection, schedule: Q07DX002 (ip), vehicle: saline with Tween-80
[3] = dose: 12.5 mg/kg/injection, schedule: Q07DX002 (ip), vehicle: saline with Tween-80
[4] = dose: 25.0 mg/kg/injection, schedule: Q07DX002 (ip), vehicle: saline with Tween-80
[5] = dose: 50.0 mg/kg/injection, schedule: Q07DX002 (ip), vehicle: saline with Tween-80
[6] = dose: 800.0 mg/kg/injection, schedule: Q07DX002 (ip), vehicle: saline with Tween-80
[7] = dose: 400.0 mg/kg/injection, schedule: Q07DX002 (ip), vehicle: saline with Tween-80
[8] = dose: 50.0 mg/kg/injection, schedule: Q07DX002 (ip), vehicle: Klucel (hydroxypropylcellulose) (HPC)
[9] = dose: 200.0 mg/kg/injection, schedule: Q07DX002 (ip), vehicle: Klucel (hydroxypropylcellulose) (HPC)
[10] = dose: 400.0 mg/kg/injection, schedule: Q07DX002 (ip), vehicle: Klucel (hydroxypropylcellulose) (HPC)
[11] = dose: 25.0 mg/kg/injection, schedule: Q07DX002 (ip), vehicle: saline
[12] = dose: 400.0 mg/kg/injection, schedule: Q07DX002 (ip), vehicle: saline
[13] = dose: 800.0 mg/kg/injection, schedule: Q07DX002 (ip), vehicle: saline
[14] = dose: 40.0 mg/kg/injection, schedule: Q07DX002 (ip), vehicle: saline
[15] = dose: 80.0 mg/kg/injection, schedule: Q07DX002 (ip), vehicle: saline
[16] = dose: 25.0 mg/kg/injection, schedule: Q07DX002 (ip), vehicle: Klucel (hydroxypropylcellulose) (HPC)

In the case of `O=C(Nc1nncs1)c1ccncc1`, the T/C [1] is reported as 128 % of control and the T/C [2] is reported as 125 % of control.
With `Cc1cc(O)c2c(c1O)C(=O)C13C(=C2O)C(=O)C2C(O)C1C1C(O)C3C(=O)C3=C(O)c4c(O)cc(C)c(O)c4C(=O)C321` (stereo unspecified) the survivor count [3] was 5 of 10 on day 20, the survivor count [4] was 5 of 10 on day 20 and the survivor count [5] was 1 of 10 on day 20. The survivor count [1] was 0 of 10 on day 20.
`COc1cccc(C2NC(=O)c3c(n[nH]c3N)S2)c1O` (stereo unspecified) was tested, and the survivor count [6] was 0 of 10 on day 20.
In the case of `Clc1ccc2nnnn2n1`, the T/C [4] is reported as 145 % of control, the T/C [5] is reported as 139 % of control [8 of 10 alive on day 20] and the T/C [1] is reported as 125 % of control [8 of 10 alive on day 20]. The survivor count [2] was 5 of 10 on day 20, the survivor count [7] was 5 of 10 on day 20 and the survivor count [6] was 0 of 10 on day 20.
In the case of `[I][Hg][CH2]C1OCCOC1[CH2][Hg][I]` (stereo unspecified), the survivor count [8] is reported as 4 of 10 on day 20, the survivor count (dose: 100.0 mg/kg/injection, schedule: Q07DX002 (ip), vehicle: Klucel (hydroxypropylcellulose) (HPC)) is reported as 0 of 10 on day 20 and the survivor count [9] is reported as 0 of 10 on day 20. For the same compound, the survivor count [10] was 0 of 10 on day 20.
With `C1=CCOCOC1` the T/C [3] was 132 % of control [9 of 10 alive on day 20], the T/C [1] was 148 % of control and the survivor count [2] was 4 of 10 on day 20. For the same compound, the survivor count [7] was 0 of 10 on day 20.
`CN=C(N)N/N=C(\C)c1ccc2c(c1)Cc1cc(/C(C)=N/NC(N)=NC)ccc1-2` was tested, and the T/C (dose: 1.5 mg/kg/injection, schedule: Q07DX002 (ip), vehicle: saline with Tween-80) was 129 % of control [9 of 10 alive on day 20], the survivor count (dose: 6.0 mg/kg/injection, schedule: Q07DX002 (ip), vehicle: saline with Tween-80) was 5 of 10 on day 20 and the survivor count (dose: 12.0 mg/kg/injection, schedule: Q07DX002 (ip), vehicle: saline with Tween-80) was 0 of 10 on day 20. For the same compound, the survivor count (dose: 24.0 mg/kg/injection, schedule: Q07DX002 (ip), vehicle: saline with Tween-80) was 0 of 10 on day 20.
With `O=c1cnn(C2OC(CO)C(O)C2O)c(=O)[nH]1` (stereo unspecified) the T/C (dose: 100.0 mg/kg/injection, schedule: Q07DX002 (ip), vehicle: saline) was 126 % of control.
`CCSC(=O)N1c2ccc(OC)cc2C=CC1C#N` (stereo unspecified) was tested, and the T/C [5] was 129 % of control, the T/C [2] was 144 % of control and the T/C (dose: 2800.0 mg/kg/injection, schedule: Q07DX002 (ip), vehicle: saline with Tween-80) was 134 % of control [8 of 10 alive].
For `NC1=NC(=O)N2CC12` (stereo unspecified), the T/C [11] was 127 % of control [9 of 10 alive on day 20], the survivor count [12] was 4 of 10 on day 20 and the survivor count [13] was 0 of 10 on day 20 and 1 of 10 on day 20.
In the case of `CCOC(=O)C(CC(C)C)NC(=O)C(N)Cc1ccc(N(CCCl)CCCl)cc1` (stereo unspecified), the survivor count [14] is reported as 6 of 10 on day 20, the survivor count (dose: 40.0 mg/kg/injection, schedule: Q07DX002 (ip), vehicle: water) is reported as 2 of 10 on day 20 and the survivor count [15] is reported as 0 of 10 on day 20. The survivor count (dose: 80.0 mg/kg/injection, schedule: Q07DX002 (ip), vehicle: water) was 0 of 10 on day 20, the survivor count (dose: 160.0 mg/kg/injection, schedule: Q07DX002 (ip), vehicle: saline) was 0 of 10 on day 20 and the survivor count (dose: 160.0 mg/kg/injection, schedule: Q07DX002 (ip), vehicle: water) was 0 of 10 on day 20.
`NC(=S)c1ncn(C2OC(CO)C(O)C2O)c1N` (stereo unspecified) was tested, and the T/C (dose: 12.5 mg/kg/injection, schedule: Q07DX002 (ip), vehicle: saline) was 140 % of control and the T/C [11] was 131 % of control.
For `Cc1c2oc3c(C)ccc(C(=O)NC4C(=O)NC(C(C)C)C(=O)N5CCCC5C(=O)N(C)CC(=O)N(C)C(C(C)C)C(=O)OC4C)c3nc-2c(C(=O)NC2C(=O)NC(C(C)C)C(=O)N3CCC3C(=O)N(C)CC(=O)N(C)C(C(C)C)C(=O)OC2C)c(N)c1=O` (stereo unspecified) (I: TV[Aze][Sar][NMeV] / II: TVP[Sar][NMeV]; ester I:1-I:C, II:1-II:C; linker I:N-II:N via Actinocin(1to9); configuration not given here), the T/C (dose: 100.0 micrograms/kg/injection, schedule: Q07DX002 (ip), vehicle: saline) was 136 % of control [9 of 10 alive on day 20] and the survivor count (dose: 1600.0 micrograms/kg/injection, schedule: Q07DX002 (ip), vehicle: saline) was 0 of 10 on day 20.
In the case of `Cc1ccc2c(ccc(CC(=S)[S-])[n+]2C)c1`, the T/C (dose: 6.25 mg/kg/injection, schedule: Q07DX002 (ip), vehicle: Klucel (hydroxypropylcellulose) (HPC)) is reported as 148 % of control, the T/C [8] is reported as 127 [9 of 10 alive on day 20] and 143 % of control and the T/C [9] is reported as 132 % of control [8 of 10 alive on day 20]. For the same compound, the survivor count [10] was 5 of 10 on day 20.
`COC1C(O)C(C)OC(OC2C(Oc3cccc4c(O)c5c(=O)oc6ccc(C)c7c(=O)oc(c34)c5c67)OC(C)C(O)C2O)C1O` (stereo unspecified) was tested, and the T/C [16] was 132 % of control, the T/C (dose: 25.0 mg/kg/injection, schedule: Q07DX003 (ip), vehicle: Klucel (hydroxypropylcellulose) (HPC)) was 134 % of control and the survivor count [9] was 2 of 10. The survivor count (dose: 200.0 mg/kg/injection, schedule: Q07DX003 (ip), vehicle: Klucel (hydroxypropylcellulose) (HPC)) was 5 of 10.
`CC[n+]1c(-c2ccccc2)c2cc(N)ccc2c2ccc(N)cc21` was tested, and the T/C (dose: 2.5 mg/kg/injection, schedule: Q07DX002 (ip), vehicle: saline) was 125 % of control, the T/C (dose: 5.0 mg/kg/injection, schedule: Q07DX002 (ip), vehicle: saline) was 128 and 139 % of control and the T/C (dose: 10.0 mg/kg/injection, schedule: Q07DX002 (ip), vehicle: saline) was 132 [9 of 10 alive on day 20] and 136 % of control. The survivor count [14] was 4 of 10 on day 20 and 6 of 10 on day 20 and the survivor count [15] was 0 of 10 on day 20.
`C1CCC2[N-]CC3CCCCC3[N-]CC3CCCCC3[N-]CC3CCCCC3[N-]CC2C1.[Cu]` (stereo unspecified) was tested, and the T/C (dose: 3.12 mg/kg/injection, schedule: Q07DX003 (ip), vehicle: Klucel (hydroxypropylcellulose) (HPC)) was 125 % of control and the survivor count [16] was 1 of 10 on day 20.
With `CCCCCCCCCCCCCCCCCCCCCC(=O)Nc1ccn(C2OC(CO)C(O)C2O)c(=O)n1` (stereo unspecified) the T/C [3] was 125 % of control [9 of 10 alive on day 20], the survivor count (dose: 200.0 mg/kg/injection, schedule: Q07DX002 (ip), vehicle: saline) was 0 of 10 on day 20 and the survivor count [12] was 0 of 10 on day 20. For the same compound, the survivor count [13] was 0 of 10 on day 20.
